Measured values reported in patent publication US6635242B2, “Broad spectrum microbicidal and spermicidal compositions, devices, and methods” (The Pennsylvania State University, priority 1998, dated 2003).
For at least one compound, name, drawing or mass did not settle the structure.

System: BPV-1
Assay: BPV-1 focus assay in C127 mouse cells
Assay type: cell-based, bovine papillomavirus
Conditions: Table 7; 0.1% detergent + virus, 10 min at 37° C., then 1:1000 dilution
Procedure: Cell-free stocks of BPV-1 were prepared by extraction (10% w/v) of epidermal bovine warts in phosphate buffered saline (PBS). In order to detect the transforming ability of BPV-1, C127 mouse cells were seeded (3×10^5 cells per flask) into T-25^2 flasks. After 24 hr of growth, subconfluent cells were infected with BPV-1. For the positive controls, stock virus (20 μl) was diluted (1:1) with PBS, incubated at 37° C. for 10 min, diluted […] and then added (100 μl ) into the 5 ml of cell culture medium present on the cells. Cells were refed at 24 hours and subsequently 2 times weekly. The presence of morphologically transformed foci was counted after 2 weeks and then again at 3 weeks.
Virus inactivations were carried out in vitro by addition of concentrated SDS solutions to the virus stocks (20 μl of virus plus 20 μl of detergent) and subsequent incubation at 37° C. for 10 or 30 min as indicated. Following inactivation, virus was diluted 1000 fold to lower the detergent concentration and the preparations were immediately used for infection as above.
Although SDS could effectively reduce HSV-2 infectivity, it remained possible that this destruction was mediated by envelope removal. Because papillomaviruses are non-enveloped, the possibility remained that SDS would fail to inactivate these viruses. […]

CCCCCCCCCCCC(=O)[O-].[Na+] [NA+ Lauric Acid, sodium salt of lauric acid]
# off FOCI: 0, 0, 0
